Measured values: patent publication US20250270343A1
No constants are given. Whether binding was seen depends on the method and setting. Some results given as binding are weak or reduced against the parent protein; the word gives no strength.

Protein sequences, listed by entry. Tags and fused reporters are not part of them. Lines headed by an entry give the natural chain unless they say otherwise; changes in a name come on top. Residues count along the entry.
UniProt Q14956, residues 23-498: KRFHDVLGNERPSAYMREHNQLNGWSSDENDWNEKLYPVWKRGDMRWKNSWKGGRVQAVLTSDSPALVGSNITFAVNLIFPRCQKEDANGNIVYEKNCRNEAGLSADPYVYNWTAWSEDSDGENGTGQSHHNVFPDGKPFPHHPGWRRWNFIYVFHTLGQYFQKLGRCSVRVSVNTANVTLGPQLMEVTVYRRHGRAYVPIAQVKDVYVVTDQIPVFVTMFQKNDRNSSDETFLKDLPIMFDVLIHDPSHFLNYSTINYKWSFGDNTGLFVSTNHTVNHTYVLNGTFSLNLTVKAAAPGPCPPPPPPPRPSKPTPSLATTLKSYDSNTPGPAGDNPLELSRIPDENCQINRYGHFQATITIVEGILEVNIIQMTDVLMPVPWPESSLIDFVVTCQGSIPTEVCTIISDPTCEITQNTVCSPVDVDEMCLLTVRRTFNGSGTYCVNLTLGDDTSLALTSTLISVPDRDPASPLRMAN
UniProt Q99P91, residues 23-502: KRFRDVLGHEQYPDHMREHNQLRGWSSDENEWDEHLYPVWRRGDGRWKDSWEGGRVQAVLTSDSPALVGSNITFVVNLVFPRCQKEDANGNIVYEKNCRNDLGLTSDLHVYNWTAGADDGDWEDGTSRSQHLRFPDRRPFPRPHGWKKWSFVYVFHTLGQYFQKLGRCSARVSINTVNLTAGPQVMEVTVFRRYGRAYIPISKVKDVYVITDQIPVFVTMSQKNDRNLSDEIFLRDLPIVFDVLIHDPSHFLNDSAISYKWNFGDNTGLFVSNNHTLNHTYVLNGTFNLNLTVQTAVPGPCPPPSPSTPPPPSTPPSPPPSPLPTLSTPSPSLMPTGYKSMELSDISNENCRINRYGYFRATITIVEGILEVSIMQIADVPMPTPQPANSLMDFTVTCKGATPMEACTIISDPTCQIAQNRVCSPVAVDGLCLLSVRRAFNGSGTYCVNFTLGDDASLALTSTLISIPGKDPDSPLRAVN
UniProt P01636: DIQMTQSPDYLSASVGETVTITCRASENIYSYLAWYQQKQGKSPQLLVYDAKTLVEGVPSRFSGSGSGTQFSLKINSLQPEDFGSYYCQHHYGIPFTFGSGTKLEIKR

Columns and labels:
[1] = molecular target: soluble human GPNMB-Fc polypeptide (human) (UniProt Q14956); experiment: FACS ligand binding assay: 2 ug/mL huGPNMB-Fc pre-complexed with rising Fab2, then SVEC4-10 cells; ligand side: unidentified ligand(s) on SVEC4-10 cells; bound GPNMB-Fc detected with anti-human IgG1 secondary
[2] = molecular target: soluble mouse GPNMB-Fc polypeptide (Fc of human IgG1 or mouse IgG2A, not specified for the assay) (mouse) (UniProt Q99P91); experiment: FACS ligand binding assay: 2 ug/mL moGPNMB-Fc pre-complexed with rising Fab2, then SVEC4-10 cells; ligand side: unidentified ligand(s) on SVEC4-10 cells; bound GPNMB-Fc detected with anti-human IgG1 secondary
[3] = molecular target: soluble mouse GPNMB-Fc polypeptide (Fc of human IgG1 or mouse IgG2A, not specified for the assay) (mouse) (UniProt Q99P91); experiment: FACS ligand binding assay: 2 ug/mL moGPNMB-Fc pre-complexed with rising Fab2, then SVEC4-10 cells; blocked ligand: unidentified ligand(s) on SVEC4-10 cells; bound GPNMB-Fc detected with anti-human IgG1 secondary

Substance	binding [1]	binding [2]	binding [3]
recombinant Fab2 fragment of anti-GPNMB antibody GPN-38 (from UniProt P01636 1-107)	binds	binds	–
recombinant Fab2 fragment of anti-GPNMB antibody GPN-52 (from UniProt P01655 1-112)	–	–	binds
recombinant Fab2 fragment of anti-GPNMB antibody GPN-61 (from UniProt P01655 1-112)	binds	–	binds
